The values below come from patent US11511028B2, “Extracorporeal drug removal for intravascular triggered drug delivery systems” (MUSC Foundation for Research Development, priority 2018, dated 2022).

The data set can be described thus: In vitro filtration of unencapsulated drug in PBS through activated carbon filter. The following applies: for Filtration efficacy: unencapsulated drug in PBS, filter filled with 175 mg carbon pellets, n=3.

`COc1cccc2c1C(=O)c1c(O)c3c(c(O)c1C2=O)C[C@@](O)(C(=O)CO)C[C@@H]3O[C@H]1C[C@H](N)[C@H](O)[C@H](C)O1` [doxorubicin]: the Filtration efficacy (flow rate 350 ul/min) was 90%.

Consider `CC(=O)[C@]1(O)Cc2c(O)c3c(c(O)c2[C@@H](O[C@H]2C[C@H](N)[C@H](O)[C@H](C)O2)C1)C(=O)c1ccccc1C3=O` [idarubicin], for which the Filtration efficacy was found to be 95% (flow rate 350 ul/min) and 85% (flow rate 520 ul/min). For the setting “flow rates 350, 410 and 520 ul/min, PBS”, the “Filter efficacy at the examined flow rates” value is 85-95%.
